Measurements: paper PMC6038381
Results are given in words; binding and its absence hold for the method and conditions named.

Amino acid sequences for entries named in this document (tags omitted). Residues count along the entry.
UniProt Q9LX66, residues 25-405: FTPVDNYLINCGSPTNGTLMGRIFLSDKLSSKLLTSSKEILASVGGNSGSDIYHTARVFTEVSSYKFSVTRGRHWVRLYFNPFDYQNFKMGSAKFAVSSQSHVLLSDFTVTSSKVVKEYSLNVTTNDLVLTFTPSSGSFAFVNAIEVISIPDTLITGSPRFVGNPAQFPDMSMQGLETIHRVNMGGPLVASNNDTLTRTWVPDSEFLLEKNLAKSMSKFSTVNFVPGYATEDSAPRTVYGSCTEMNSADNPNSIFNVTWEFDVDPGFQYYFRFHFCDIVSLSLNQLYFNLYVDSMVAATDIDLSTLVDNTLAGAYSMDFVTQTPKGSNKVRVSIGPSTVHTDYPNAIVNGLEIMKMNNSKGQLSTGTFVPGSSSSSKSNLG

Legend:
Assay in all cases: SEC; analytical gel filtration, Superdex 200 Increase 10/300 GL, 20 mM citric acid pH 5.0, 100 mM NaCl; 100 µl of each isolated ectodomain loaded (ANX1, HERK1, THE1 5 mg ml^-1; ANX2 4.5 mg ml^-1), 0.7 ml min^-1; column calibrated with HMW and LMW standards; both purified
[1] = biological target: Arabidopsis thaliana HERCULES1 (HERK1) ectodomain (residues 1-405) (Arabidopsis thaliana) (UniProt Q9LX66)
[2] = biological target: Arabidopsis thaliana ANXUR1 (ANX1) ectodomain (residues 1-429) (Arabidopsis thaliana) (UniProt Q9SR05)
[3] = biological target: Arabidopsis thaliana THESEUS1 (THE1) ectodomain (residues 1-403) (Arabidopsis thaliana) (UniProt Q9LK35)

Question: How did the binding [1] turn out when “Arabidopsis thaliana HERCULES1 (HERK1) ectodomain (residues 1-405) (from UniProt Q9LX66 25-405) (domain or fragment)” was run?
Answer: Its binding is “no binding (tested: 5 mg ml^-1 loaded)”.

B1: Arabidopsis thaliana ANXUR1 (ANX1) ectodomain (residues 1-429) (domain or fragment, UniProt Q9SR05 27-429)
chain: QDLALSCGTSEASADQDKKKWEPDTKFLKTGNSIHATATYQDPSLLSTVPYMTARIFTAPATYEIPIKGDKRHLLRLYFYPSTYTGLNISNSYFTVEANDVTLLSNFSAAITCQALTQAYLVKEYSLAPTDKDVLSIKFTPSDKYRDAFAFINGIEVIQMPELFDTAALVGFTDQTMDAKTANLQSMFRLNVGGQDIPGSQDSGGLTRTWYNDAPYIFSAGLGVTLQASNNFRINYQNMPVSIAPADIYKTARSQGPNGDINLKSNLTWMFQIDKNFTYILRLHFCEFQLSKINQKVFNIYINNRTAQADTTPADIIGWTGEKGIPMYKDYAIYVDANNGGEEITLQMTPSTFGQPEYYDSSLNGLEIFKMDTMKNLAGPNPEPSPMQAEEEVKKEFKNEKRH
modifications: N-glycosylated; glycans at Asn132, Asn292 and Asn302
Question: How did the binding [2] turn out when B1 was run?
Answer: Its binding is “no binding (tested: 5 mg ml^-1 loaded)”.

B2: Arabidopsis thaliana THESEUS1 (THE1) ectodomain (residues 1-403) (domain or fragment, UniProt Q9LK35 23-403)
chain: SALFNPPDNYLISCGSSQNITFQNRIFVPDSLHSSLVLKIGNSSVATSTTSNNSTNSIYQTARVFSSLASYRFKITSLGRHWIRLHFSPINNSTWNLTSASITVVTEDFVLLNNFSFNNFNGSYIFKEYTVNVTSEFLTLSFIPSNNSVVFVNAIEVVSVPDNLIPDQALALNPSTPFSGLSLLAFETVYRLNMGGPLLTSQNDTLGRQWDNDAEYLHVNSSVLVVTANPSSIKYSPSVTQETAPNMVYATADTMGDANVASPSFNVTWVLPVDPDFRYFVRVHFCDIVSQALNTLVFNLYVNDDLALGSLDLSTLTNGLKVPYFKDFISNGSVESSGVLTVSVGPDSQADITNATMNGLEVLKISNEAKSLSGVSSVKSL
modifications: N-glycosylated
Question: With B2 as the molecule, how does the binding [3] read?
Answer: The binding was “no binding (tested: 5 mg ml^-1 loaded)”.
